These are yes or no findings as the source states them, for the method shown. In cells and extracts the contact can be indirect. For part of these data: Binding calls can cover weak binding; strength is not graded here.
B1: Bmi1 (protein, UniProt P25916 1-324)
chain: MHRTTRIKITELNPHLMCVLCGGYFIDATTIIECLHSFCKTCIVRYLETSKYCPICDVQVHKTRPLLNIRSDKTLQDIVYKLVPGLFKNEMKRRRDFYAAHPSADAANGSNEDRGEVADEEKRIITDDEIISLSIEFFDQSRLDRKVNKEKPKEEVNDKRYLRCPAAMTVMHLRKFLRSKMDIPNTFQIDVMYEEEPLKDYYTLMDIAYIYTWRRNGPLPLKYRVRPTCKRMKMSHQRDGLTNAGELESDSGSDKANSPAGGVPSTSSCLPSPSTPVQSPHPQFPHISSTMNGTSNSPSANHQSSFASRPRKSSLNGSSATSSG
B2: Cbx4 (protein, UniProt O55187 1-551)
chain: MELPAVGEHVFAVESIEKKRIRKGRVEYLVKWRGWSPKYNTWEPEENILDPRLLIAFQNRERQEQLMGYRKRGPKPKPLVVQVPTFARRSNVLTGLQDSSADNRAKLELGTQGKGQGHQYELNSKKHHQYQPHSKERSGKPPPPGKSGKYYYQLNSKKHHPYQPDPKMYDLQYQGGHKEAPSPTCPDLGTKSHPPDKWAHGAAAKGYLGAVKPLGGGAGAPGKGSEKGPPNGMTPAPKEAVTGNGIGGKMKIVKNKNKNGRIVIVMSKYMENGMQAVKIKSGEAAEGEARSPSHKKRAAEERHPQGDRTFKKAAGASEEKKAEVPCKRREEEALVSGDAQPQDLGSRKLSPTKEAFGEQPLQLTTKPDLLAWDPARSSHPPAHHHHHHHHHHHHHTVGLNLSHARKRCLSETHGEREPCKKRLTARSISTPTCLGGSPVSEHPANVSPTAASLPQPEVILLDSDLDEPIDLRCVKMRSDAGEPPSTLQVKPEAPAVAAVVAPAPASEKPPAEAQEEPVEPLSEFKPFFGNIIITDVTANCLTVTFKEYVTV
B3: Mel18 (protein, UniProt P23798 1-342)
chain: MHRTTRIKITELNPHLMCALCGGYFIDATTIVECLHSFCKTCIVRYLETNKYCPMCDVQVHKTRPLLSIRSDKTLQDIVYKLVPGLFKDEMKRRRDFYAAYPLTEVPNGSNEDRGEVLEQEKGALGDDEIVSLSIEFYEGVRDREEKKNLTENGDGDKEKTGVRFLRCPAAMTVMHLAKFLRNKMDVPSKYKVEILYEDEPLKEYYTLMDIAYIYPWRRNGPLPLKYRVQPACKRLTLPTVPTPSEGTNTSGASECESVSDKAPSPATLPATSSSLPSPATPSHGSPSSHGPPATHPTSPTPPSTAAGTTTATNGGTSNCLQTPSSTSRGRKMTVNGAPCPP
B4: Rybp (protein, UniProt Q8CCI5 1-228)
chain: MTMGDKKSPTRPKRQAKPAADEGFWDCSVCTFRNSAEAFKCSICDVRKGTSTRKPRINSQLVAQQVAQQYATPPPPKKEKKEKVEKPDKEKPEKDKDISPSVTKKNTNKKTKPKSDILKDPPSEANSIQSANATTKTSETNHTSRPRLKNVDRSTAQQLAVTVGNVTVIITDFKEKTRSSSTSSSTVTSSAGSEQQNQSSSGSESTDKGSSRSSTPKGDMSAVNDESF

Legend:
[1] = molecular target: green fluorescent protein-p75 (GFP-p75), Psip1/p75; test: co-IP; GFP trap (ChromoTek, manufacturer's protocol) of GFP-p75 complexes from stably transduced WT MEFs, GFP cells as control; immunoblot of bound endogenous proteins; 5% input loaded
[2] = molecular target: HA-tagged Psip1 p52 (p52-HA); test: co-IP; anti-HA antibodies (or control IgG) on Protein A Dynabeads incubated 1 h with nuclear extracts (RIPA buffer with Benzonase) of cells with HA-tagged Psip1 isoforms; 4 washes in RIPA; immunoblot
[3] = molecular target: HA-tagged Psip1 p75 (p75-HA); test: as above

| Binder | binding [1] | binding [2] | binding [3] |
| --- | --- | --- | --- |
| B1 | binds | no binding | binds |
| B2 | binds | – | – |
| B3 | no binding | – | – |
| B4 | no binding | – | – |
